US20240042019
For part of these data: A negative result means that nothing was seen under these conditions. For part of these data: Tags and fusion partners may be left off the protein sequences shown. A weaker result is weaker than the reference pair of the same experiment.

By UniProt entry, the sequences of proteins in these tests, tags left out. Residues count along the entry.
UniProt Q9NYK1, 27-1049: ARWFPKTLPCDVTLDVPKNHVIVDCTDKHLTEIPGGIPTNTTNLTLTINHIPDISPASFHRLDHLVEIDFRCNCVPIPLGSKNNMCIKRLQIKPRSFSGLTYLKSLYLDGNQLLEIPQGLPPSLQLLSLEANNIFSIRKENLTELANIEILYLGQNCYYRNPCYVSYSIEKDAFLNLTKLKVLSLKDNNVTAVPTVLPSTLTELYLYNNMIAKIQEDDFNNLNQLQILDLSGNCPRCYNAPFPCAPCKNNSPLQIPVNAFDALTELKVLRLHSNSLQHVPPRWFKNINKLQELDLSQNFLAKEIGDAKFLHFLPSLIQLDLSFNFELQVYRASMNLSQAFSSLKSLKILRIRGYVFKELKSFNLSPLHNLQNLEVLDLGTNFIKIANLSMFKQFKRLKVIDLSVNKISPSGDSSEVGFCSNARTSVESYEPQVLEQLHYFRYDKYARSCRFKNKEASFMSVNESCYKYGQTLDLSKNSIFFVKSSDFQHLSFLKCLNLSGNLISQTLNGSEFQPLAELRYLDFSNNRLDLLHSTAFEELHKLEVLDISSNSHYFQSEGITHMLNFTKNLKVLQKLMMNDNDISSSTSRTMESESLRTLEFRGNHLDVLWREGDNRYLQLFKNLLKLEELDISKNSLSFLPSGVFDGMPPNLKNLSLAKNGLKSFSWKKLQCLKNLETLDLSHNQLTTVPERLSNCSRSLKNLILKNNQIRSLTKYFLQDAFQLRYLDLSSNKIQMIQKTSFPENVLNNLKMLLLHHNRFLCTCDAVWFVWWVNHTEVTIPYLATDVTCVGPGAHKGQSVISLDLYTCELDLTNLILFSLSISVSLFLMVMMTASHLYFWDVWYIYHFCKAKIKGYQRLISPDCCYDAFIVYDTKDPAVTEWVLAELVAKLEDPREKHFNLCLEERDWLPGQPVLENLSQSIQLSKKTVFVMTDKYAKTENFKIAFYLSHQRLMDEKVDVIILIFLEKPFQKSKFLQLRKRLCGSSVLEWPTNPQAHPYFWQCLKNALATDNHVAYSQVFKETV
UniProt O00584, 25-256: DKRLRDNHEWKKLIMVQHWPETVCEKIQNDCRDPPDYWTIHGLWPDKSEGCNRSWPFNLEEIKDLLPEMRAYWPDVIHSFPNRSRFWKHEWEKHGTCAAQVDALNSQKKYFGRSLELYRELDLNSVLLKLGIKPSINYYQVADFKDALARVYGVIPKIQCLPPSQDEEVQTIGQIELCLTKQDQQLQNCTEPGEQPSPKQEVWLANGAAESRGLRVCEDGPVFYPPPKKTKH

Assays:
TLR7 (Homo sapiens) = TLR7 (Homo sapiens) (UniProt Q9NYK1); experiment: activity in cells; settings: protein in cells, protein details: endogenous in human PBMC (pDC)
TLR8 (Homo sapiens) = target: T1, TLR8 (Homo sapiens) (UniProt Q9NR97); experiment: activity in cells; settings: protein in cells, protein details: endogenous in human PBMC (monocytes)
T1 sequence (looked up, limits assumed): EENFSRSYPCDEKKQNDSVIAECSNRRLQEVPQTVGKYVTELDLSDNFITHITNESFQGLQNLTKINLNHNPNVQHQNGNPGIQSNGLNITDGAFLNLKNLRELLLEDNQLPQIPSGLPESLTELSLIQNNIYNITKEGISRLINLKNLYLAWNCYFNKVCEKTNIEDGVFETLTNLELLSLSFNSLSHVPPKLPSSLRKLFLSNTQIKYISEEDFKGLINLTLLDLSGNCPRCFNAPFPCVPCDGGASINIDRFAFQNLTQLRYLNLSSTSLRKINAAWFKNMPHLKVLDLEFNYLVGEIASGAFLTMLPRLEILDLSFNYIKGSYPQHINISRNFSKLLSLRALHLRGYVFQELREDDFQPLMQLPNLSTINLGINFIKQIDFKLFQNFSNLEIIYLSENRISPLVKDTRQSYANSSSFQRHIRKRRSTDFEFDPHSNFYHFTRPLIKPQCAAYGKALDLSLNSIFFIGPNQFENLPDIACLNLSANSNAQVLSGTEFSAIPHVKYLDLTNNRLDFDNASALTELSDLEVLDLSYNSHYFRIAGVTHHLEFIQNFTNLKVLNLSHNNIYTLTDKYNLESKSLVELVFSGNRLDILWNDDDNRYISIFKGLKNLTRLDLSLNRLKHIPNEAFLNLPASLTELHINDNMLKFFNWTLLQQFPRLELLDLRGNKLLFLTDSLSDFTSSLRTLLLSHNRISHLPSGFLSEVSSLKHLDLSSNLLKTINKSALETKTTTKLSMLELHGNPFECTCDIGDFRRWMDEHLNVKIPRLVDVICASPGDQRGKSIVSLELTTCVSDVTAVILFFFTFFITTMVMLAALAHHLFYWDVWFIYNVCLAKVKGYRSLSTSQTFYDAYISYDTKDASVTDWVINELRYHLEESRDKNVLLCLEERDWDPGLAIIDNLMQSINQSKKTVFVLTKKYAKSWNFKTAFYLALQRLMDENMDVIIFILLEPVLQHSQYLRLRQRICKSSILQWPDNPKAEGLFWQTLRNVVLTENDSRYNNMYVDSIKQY

RNase T2 = RNase T2 (UniProt O00584); experiment: enzyme reaction in vitro; settings: purified recombinant protein, protein details: Origene recombinant
[1] = negative control, no cytokine response, only the site is given

CACACACACACACACACACA [pCA]
functional effect (TLR7 (Homo sapiens); [1]): not active | functional effect (TLR8 (Homo sapiens); [1]): not active

CAGACCUUCCAGACCUUC [ORN7001]
functional effect (TLR7 (Homo sapiens); DOTAP, none or minor with p-L-arginine): active | functional effect (TLR8 (Homo sapiens); DOTAP): active

CAGACCUUCCAGACCUUC [ORN7002]
functional effect (TLR7 (Homo sapiens); 2'-OMe first U of each CUUC, DOTAP, reduced vs ORN7001, variant of ORN7001): less active

CAGACCUUCCAGACCUUC [ORN7003]
functional effect (TLR7 (Homo sapiens); 2'-F first U of each CUUC, DOTAP, maintained vs ORN7001, variant of ORN7001): active | functional effect (TLR8 (Homo sapiens); 2'-F first U of each CUUC, DOTAP, TLR8 activity eliminated, variant of ORN7001): not active

CAGACCUUCCAGACCUUC [ORN7004]
functional effect (TLR7 (Homo sapiens); PS within each CUUC motif, DOTAP, mildly increased vs ORN7001, variant of ORN7001): active | functional effect (TLR8 (Homo sapiens); PS within each CUUC motif, DOTAP, markedly increased vs ORN7001, variant of ORN7001): active

CCGAGCCGCUUUUCCC [ORN7013]
functional effect (TLR7 (Homo sapiens); full PS, IFN-a from PBMC, p-L-arginine, limited TLR7 selectivity, no TLR7 activation with DOTAP): active | functional effect (TLR8 (Homo sapiens); full PS, TNF-a from PBMC, p-L-arginine): active | activity on this sequence (RNase T2; full PS, 0.5 ug/ml RNase T2, 3-12 min, degraded faster than modified): active

CCGAGCCGCUUUUCCC [ORN7014]
functional effect (TLR7 (Homo sapiens); 2'-OMe U10 and U12, PS except PO 3' of each modified U, IFN-a maintained or lower vs ORN7013, p-L-arginine, variant of ORN7013): active | functional effect (TLR8 (Homo sapiens); 2'-OMe U10 and U12, PS except PO 3' of each modified U, TNF-a greatly reduced vs ORN7013, p-L-arginine, variant of ORN7013): less active | activity on this sequence (RNase T2; 2'-OMe U10 and U12, PS except PO 3' of each modified U, slower than ORN7013, variant of ORN7013): less active

CCGAGCCGCUUUUCCC [ORN7015]
functional effect (TLR7 (Homo sapiens); 2'-F U10 and U12, PS except PO 3' of each modified U, IFN-a maintained or lower vs ORN7013, p-L-arginine, variant of ORN7013): active | functional effect (TLR8 (Homo sapiens); 2'-F U10 and U12, PS except PO 3' of each modified U, TNF-a greatly reduced vs ORN7013, p-L-arginine, variant of ORN7013): less active | activity on this sequence (RNase T2; 2'-F U10 and U12, PS except PO 3' of each modified U, slower than ORN7013, variant of ORN7013): less active

CCGAGCCGCUUUUCCC [ORN7016]
functional effect (TLR7 (Homo sapiens); 2'-OMe U10, 2'-F U12, PS except PO 3' of each modified U, TLR7-selective but weakly active, p-L-arginine, variant of ORN7013): active | functional effect (TLR8 (Homo sapiens); 2'-OMe U10, 2'-F U12, PS except PO 3' of each modified U, TNF-a greatly reduced vs ORN7013, p-L-arginine, variant of ORN7013): less active | activity on this sequence (RNase T2; 2'-OMe U10, 2'-F U12, PS except PO 3' of each modified U, slower than ORN7013, variant of ORN7013): less active

CCGAGCCGCUUUUCCC [ORN7018]
functional effect (TLR7 (Homo sapiens); 2'-OMe U10 and U12, PS 3' of U11 and U13 only, no activity with p-L-arginine, low or none with DOTAP, variant of ORN7013): not active

CCGAGCCGCUUUUCCC [ORN7019]
functional effect (TLR8 (Homo sapiens); 2'-F U10 and U12, PS 3' of U11 and U13 only, DOTAP, TLR8 activity only at 2 ug/ml, variant of ORN7013): less active

CCGAGCCGCUUUUCCC [ORN7020]
functional effect (TLR7 (Homo sapiens); 2'-OMe U10, 2'-F U12, PS 3' of U11 and U13 only, no activity with p-L-arginine, low or none with DOTAP, variant of ORN7013): not active

CCGAGCCGCUUUUCCC [ORN7021]
functional effect (TLR7 (Homo sapiens); 2'-F U10, 2'-OMe U12, PS 3' of U11 and U13 only, no activity with p-L-arginine, low or none with DOTAP, variant of ORN7013): not active

CCGAGCCGCUUUUCCC [ORN7022]
functional effect (TLR7 (Homo sapiens); PS only within C*U*U*U*U*C motif, DOTAP 0.6 and 2 ug/ml, no TLR7 activity with p-L-arginine, variant of ORN7013): active | functional effect (TLR8 (Homo sapiens); PS only within C*U*U*U*U*C motif, DOTAP 0.6 and 2 ug/ml, variant of ORN7013): active

CCUUCUUCUUCUUCUUCUUC [ORN7009]
functional effect (TLR8 (Homo sapiens); DOTAP): active | activity on this sequence (RNase T2; 0.2 ug/ml RNase T2, 3-12 min, degraded faster than modified): active

CCUUCUUCUUCUUCUUCUUC [ORN7010]
functional effect (TLR8 (Homo sapiens); 2'-OMe first U of each UUC, little to no TNF-a with 2'3' cGMP, variant of ORN7009): not active | activity on this sequence (RNase T2; 2'-OMe first U of each UUC, strong protection vs ORN7009, variant of ORN7009): less active

CCUUCUUCUUCUUCUUCUUC [ORN7011]
functional effect (TLR8 (Homo sapiens); 2'-F first U of each UUC, little to no TNF-a with 2'3' cGMP, no TLR8 activity with DOTAP, variant of ORN7009): not active | activity on this sequence (RNase T2; 2'-F first U of each UUC, strong protection vs ORN7009, variant of ORN7009): less active

CCUUCUUCUUCUUCUUCUUC [ORN7012]
functional effect (TLR8 (Homo sapiens); full PS, DOTAP, increased vs ORN7009, variant of ORN7009): active | activity on this sequence (RNase T2; full PS, strong protection vs ORN7009, variant of ORN7009): less active

CGGCUCGGCAGAAGCCGGGCC [ORN7023F]
functional effect (TLR7 (Homo sapiens); 2'-F C4, increased activity vs ORN7023, selectivity maintained, variant of ORN7023): active

CGGCUCGGCAGAAGCCGGGCC [ORN7023Ome]
functional effect (TLR7 (Homo sapiens); 2'-OMe C4, increased activity vs ORN7023, selectivity maintained, variant of ORN7023): active

CGGCUCGGCAGAAGCCGGGCC [ORN7023]
functional effect (TLR7 (Homo sapiens); IFN-a, p-L-arginine, TLR7-selective): active

CGGCUCGGCAGAAGCCGGGCC [ORN7024]
functional effect (TLR7 (Homo sapiens); full PS, reduced activity vs ORN7023, variant of ORN7023): less active

GGUUGUUGUUGUUGUUGUUG [pU2G]
functional effect (TLR7 (Homo sapiens); positive control, DOTAP): active | functional effect (TLR8 (Homo sapiens); positive control, DOTAP): active

UCUCUCUCUCUCUCUCUCUC [ORN7005]
functional effect (TLR8 (Homo sapiens); DOTAP): active

UCUCUCUCUCUCUCUCUCUC [ORN7006]
functional effect (TLR8 (Homo sapiens); 2'-OMe all C except 3' terminal C, little to no TNF-a with 2'3' cGMP, variant of ORN7005): not active

UCUCUCUCUCUCUCUCUCUC [ORN7007]
functional effect (TLR8 (Homo sapiens); 2'-F all C except 3' terminal C, little to no TNF-a with 2'3' cGMP, variant of ORN7005): not active

UCUCUCUCUCUCUCUCUCUC [ORN7008]
functional effect (TLR8 (Homo sapiens); full PS, DOTAP, increased vs ORN7005, variant of ORN7005): active
